According to article doi:10.1101/2020.02.20.958140:
No constants are given. Whether binding was seen depends on the method and setting. In cells and extracts the contact can be indirect. Here binding means that the protein was enriched with, or labelled near, the bait; the list need not be complete.

Chains of the proteins cited; added tags and fusions are not shown.
UniProt Q68FD5: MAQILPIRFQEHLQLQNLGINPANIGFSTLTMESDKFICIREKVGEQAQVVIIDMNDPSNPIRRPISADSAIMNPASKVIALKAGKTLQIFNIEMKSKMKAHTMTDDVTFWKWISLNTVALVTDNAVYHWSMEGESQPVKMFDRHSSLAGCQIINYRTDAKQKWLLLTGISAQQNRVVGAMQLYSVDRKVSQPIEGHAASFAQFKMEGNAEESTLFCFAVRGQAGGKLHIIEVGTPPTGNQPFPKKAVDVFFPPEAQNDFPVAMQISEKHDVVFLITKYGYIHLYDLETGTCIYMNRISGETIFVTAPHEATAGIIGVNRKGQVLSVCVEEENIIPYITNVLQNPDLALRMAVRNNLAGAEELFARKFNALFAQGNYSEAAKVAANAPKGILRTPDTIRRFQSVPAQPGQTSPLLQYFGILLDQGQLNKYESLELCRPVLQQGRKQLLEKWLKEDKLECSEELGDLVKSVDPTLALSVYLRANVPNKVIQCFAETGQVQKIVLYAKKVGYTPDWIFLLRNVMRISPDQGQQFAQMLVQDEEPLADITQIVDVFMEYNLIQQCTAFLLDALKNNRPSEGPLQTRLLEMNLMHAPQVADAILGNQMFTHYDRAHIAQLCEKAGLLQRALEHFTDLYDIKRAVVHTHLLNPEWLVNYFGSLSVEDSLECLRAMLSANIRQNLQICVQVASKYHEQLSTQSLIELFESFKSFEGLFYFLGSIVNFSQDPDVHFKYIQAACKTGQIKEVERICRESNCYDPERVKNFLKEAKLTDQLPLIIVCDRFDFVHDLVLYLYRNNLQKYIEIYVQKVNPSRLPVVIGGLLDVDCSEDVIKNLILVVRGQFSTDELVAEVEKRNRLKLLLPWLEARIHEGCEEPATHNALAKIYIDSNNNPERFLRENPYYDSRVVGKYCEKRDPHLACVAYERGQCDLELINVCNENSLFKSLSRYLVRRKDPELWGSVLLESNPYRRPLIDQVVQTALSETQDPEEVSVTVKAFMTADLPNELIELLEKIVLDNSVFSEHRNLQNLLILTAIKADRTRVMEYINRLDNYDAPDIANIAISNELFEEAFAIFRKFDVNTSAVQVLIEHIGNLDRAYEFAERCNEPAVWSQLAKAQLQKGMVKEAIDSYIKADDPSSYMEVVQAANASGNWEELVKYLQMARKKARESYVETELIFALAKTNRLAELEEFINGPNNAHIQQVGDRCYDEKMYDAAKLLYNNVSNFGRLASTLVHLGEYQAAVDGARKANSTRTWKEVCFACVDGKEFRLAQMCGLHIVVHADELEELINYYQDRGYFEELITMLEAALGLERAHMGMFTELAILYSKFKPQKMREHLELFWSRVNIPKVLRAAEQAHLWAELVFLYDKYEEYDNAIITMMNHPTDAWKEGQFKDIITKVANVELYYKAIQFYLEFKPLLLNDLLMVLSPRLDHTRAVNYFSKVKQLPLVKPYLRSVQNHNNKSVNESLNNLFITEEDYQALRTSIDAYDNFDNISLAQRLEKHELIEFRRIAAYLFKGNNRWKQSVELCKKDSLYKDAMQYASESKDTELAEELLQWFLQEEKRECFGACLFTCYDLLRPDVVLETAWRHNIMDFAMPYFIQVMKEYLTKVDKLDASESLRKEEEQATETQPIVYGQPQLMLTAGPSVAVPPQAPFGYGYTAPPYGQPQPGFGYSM
UniProt Q64331: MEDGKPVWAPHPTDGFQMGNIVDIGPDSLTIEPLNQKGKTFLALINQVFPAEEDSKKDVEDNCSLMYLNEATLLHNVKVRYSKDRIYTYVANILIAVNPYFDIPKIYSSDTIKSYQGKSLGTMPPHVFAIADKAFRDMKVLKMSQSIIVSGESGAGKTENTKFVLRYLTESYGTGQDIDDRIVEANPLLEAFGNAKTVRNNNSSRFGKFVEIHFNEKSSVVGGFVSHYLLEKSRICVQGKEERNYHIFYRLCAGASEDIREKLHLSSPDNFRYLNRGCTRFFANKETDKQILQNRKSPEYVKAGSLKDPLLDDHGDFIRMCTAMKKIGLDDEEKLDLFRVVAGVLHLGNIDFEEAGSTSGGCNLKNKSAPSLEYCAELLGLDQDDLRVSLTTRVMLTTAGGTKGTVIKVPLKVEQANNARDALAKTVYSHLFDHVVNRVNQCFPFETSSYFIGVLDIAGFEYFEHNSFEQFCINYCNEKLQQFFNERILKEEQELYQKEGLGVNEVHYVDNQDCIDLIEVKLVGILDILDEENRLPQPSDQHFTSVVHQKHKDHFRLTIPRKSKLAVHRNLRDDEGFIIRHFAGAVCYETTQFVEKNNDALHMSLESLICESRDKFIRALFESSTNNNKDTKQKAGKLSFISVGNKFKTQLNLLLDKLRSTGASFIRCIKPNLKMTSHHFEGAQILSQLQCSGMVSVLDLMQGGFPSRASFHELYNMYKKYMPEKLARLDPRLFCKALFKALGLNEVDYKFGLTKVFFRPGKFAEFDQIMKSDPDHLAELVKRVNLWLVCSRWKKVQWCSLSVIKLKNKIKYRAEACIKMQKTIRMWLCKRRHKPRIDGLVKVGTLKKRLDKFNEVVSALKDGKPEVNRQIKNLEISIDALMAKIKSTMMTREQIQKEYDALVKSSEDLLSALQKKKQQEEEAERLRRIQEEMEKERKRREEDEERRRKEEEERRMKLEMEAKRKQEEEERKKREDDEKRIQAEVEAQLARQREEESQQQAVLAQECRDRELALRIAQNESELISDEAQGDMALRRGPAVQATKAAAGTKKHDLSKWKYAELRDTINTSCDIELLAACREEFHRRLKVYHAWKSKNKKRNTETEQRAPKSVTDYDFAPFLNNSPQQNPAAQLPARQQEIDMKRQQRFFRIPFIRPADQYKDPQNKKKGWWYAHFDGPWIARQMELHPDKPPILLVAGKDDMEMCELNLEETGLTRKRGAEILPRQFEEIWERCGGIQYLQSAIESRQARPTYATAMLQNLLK
UniProt Q61879: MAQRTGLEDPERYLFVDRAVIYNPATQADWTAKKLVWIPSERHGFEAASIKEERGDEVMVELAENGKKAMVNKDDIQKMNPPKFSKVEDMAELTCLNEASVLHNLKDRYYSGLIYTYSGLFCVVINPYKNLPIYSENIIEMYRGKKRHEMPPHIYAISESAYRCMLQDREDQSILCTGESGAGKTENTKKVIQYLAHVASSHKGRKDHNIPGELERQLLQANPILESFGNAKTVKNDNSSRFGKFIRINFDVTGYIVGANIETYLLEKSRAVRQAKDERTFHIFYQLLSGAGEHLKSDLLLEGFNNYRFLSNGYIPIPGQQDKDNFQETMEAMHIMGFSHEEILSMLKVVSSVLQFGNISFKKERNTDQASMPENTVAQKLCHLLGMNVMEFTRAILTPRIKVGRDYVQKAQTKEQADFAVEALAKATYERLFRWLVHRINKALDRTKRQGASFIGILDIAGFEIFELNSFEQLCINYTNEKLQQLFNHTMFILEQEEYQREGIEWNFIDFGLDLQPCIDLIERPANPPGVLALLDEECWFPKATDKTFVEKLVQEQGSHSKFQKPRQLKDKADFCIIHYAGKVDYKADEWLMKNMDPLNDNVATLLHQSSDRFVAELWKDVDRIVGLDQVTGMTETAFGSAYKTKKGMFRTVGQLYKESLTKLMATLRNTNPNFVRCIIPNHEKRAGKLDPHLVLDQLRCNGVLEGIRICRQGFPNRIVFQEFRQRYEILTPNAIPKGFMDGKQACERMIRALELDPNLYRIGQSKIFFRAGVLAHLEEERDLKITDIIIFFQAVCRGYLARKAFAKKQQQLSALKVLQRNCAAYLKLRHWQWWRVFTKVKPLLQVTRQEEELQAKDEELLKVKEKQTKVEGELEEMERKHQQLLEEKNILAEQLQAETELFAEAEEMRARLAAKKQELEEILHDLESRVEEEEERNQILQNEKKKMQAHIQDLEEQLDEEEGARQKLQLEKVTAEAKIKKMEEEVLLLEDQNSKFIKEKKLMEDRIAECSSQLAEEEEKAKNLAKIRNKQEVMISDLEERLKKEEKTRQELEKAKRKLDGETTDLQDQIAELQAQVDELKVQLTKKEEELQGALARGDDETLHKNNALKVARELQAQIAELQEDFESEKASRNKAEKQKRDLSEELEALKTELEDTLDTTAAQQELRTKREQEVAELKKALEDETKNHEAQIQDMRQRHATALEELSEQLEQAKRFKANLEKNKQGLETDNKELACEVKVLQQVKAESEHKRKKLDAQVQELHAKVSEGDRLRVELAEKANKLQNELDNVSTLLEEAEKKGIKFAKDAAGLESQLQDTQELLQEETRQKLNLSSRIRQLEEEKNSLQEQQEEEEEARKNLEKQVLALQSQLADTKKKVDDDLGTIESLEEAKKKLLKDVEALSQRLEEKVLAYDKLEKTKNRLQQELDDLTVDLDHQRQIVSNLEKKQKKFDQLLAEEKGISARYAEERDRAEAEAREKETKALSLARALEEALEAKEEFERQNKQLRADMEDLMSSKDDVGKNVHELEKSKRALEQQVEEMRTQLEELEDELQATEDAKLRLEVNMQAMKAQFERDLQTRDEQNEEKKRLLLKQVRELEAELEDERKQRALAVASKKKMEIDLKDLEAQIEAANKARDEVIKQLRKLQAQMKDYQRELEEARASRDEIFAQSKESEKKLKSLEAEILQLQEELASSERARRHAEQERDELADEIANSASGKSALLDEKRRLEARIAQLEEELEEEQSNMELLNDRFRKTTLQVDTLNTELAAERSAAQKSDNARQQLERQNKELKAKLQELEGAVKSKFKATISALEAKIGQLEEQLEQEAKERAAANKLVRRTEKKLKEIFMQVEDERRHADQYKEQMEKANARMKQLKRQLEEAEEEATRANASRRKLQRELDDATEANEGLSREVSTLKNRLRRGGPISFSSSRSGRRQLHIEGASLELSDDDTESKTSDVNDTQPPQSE

Target: clathrin (immunoprecipitated with an anti-clathrin heavy chain antibody) (mouse (endogenous in sciatic nerve)) (UniProt Q68FD5)
Test: affinity purification with mass spectrometry

binding	Substance
binds	myosin-6 (from UniProt Q64331 1-1262)
binds	myosin-10 (from UniProt Q61879 1-1976)
